Experimental data from article PMC6401487.

T1: Ferredoxin 1 (Fd-1), encoded by TK1694, with C-terminal HA-His6 extension (Thermococcus kodakarensis) (UniProt Q977X3)
T1 sequence: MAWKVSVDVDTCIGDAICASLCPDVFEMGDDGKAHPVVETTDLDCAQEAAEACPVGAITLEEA

T2: Ferredoxin 3 (Fd-3), encoded by TK2012, with C-terminal HA-His6 extension (Thermococcus kodakarensis) (UniProt Q5JDE8)
T2 sequence: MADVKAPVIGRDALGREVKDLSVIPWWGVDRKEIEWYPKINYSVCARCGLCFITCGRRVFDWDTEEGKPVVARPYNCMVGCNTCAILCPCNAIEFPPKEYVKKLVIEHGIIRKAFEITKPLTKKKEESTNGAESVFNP

T3: Ferredoxin 3 (Fd-3), encoded by TK2012, with C-terminal HA-His6 extension (Thermococcus kodakarensis), Q5JDE8
T3 chain: T2 sequence

B1: Indolepyruvate:ferredoxin oxidoreductase, α subunit (protein, UniProt O07835 1-647)
chain: MAKVTDIVLWDKPGERVLLLGNHAIARGALEANIAVFAAYPGTPSSELTDTMAAVAKKAGVYMEYSTNEKVAFETALAAAWSGLRAMTAMKHVGLNVAADSFLSSVGMGVEGGFVIMVADDPSMWSSQNEQDTRVYAKFANVPVLEPSSPHEAKEMTKYAFELSEKFKHFVILRTTTRSSHARGDVVLGELPEEIKTGKRKFGKFKKDPTRFVDVPAHARKFHPLILEKIEKIREELNNCPFNWIEGKEDAKVGIIAPGLSYAYVKEALAWLGVEDVKILKLGTPFPVPYGLLGKFFDGLEKVLIVEELEPVVEEQVKTWAYDKGLRIPIHGKDLVPRVYEMTTRRAVEAIAKFLGLETPINFAEIDEKYEKVSQIVPPRPPSLCPACPHRNSFFAIRKAAGPKAIYPSDIGCYTLGVLPPLRTVDTTVAMGASIGIGHGLSIAMNGSLAEEEHKEGKEKQIIVATIGDSTFYHTGLPALANAIYNRSNVLIVVLDNLVTAMTGDQPNPGTGQTPHGMGKRIPIEDVAKAMGADFVAVVDPYDIKATYETIKKALEVEGVSVVVSRQVCALYKIGQMRRRGMKWPIYHVVEDKCTGCKICINAYGCPAIYWDPETKKAKVDPTMCWGCGGCAQVCPFDAFEPMKEGE
B2: Indolepyruvate:ferredoxin oxidoreductase, β subunit (protein, UniProt O07836 1-202)
chain: MKEYNIVITGVGGQGILTAANLLGWAALRAGYKVRVGEVHGMSQRFGSVIAYVRFGEDVYGAMVPEGKADVILSFEPVEALRYINYLKKGGLVFTNARPIPPVQVSMGLATYPTLDEMKKIVEEDFGGKFMAFDAEKLAMEAGNIVTTNVVLIGALSQTPGFPLSEEQIKEVIRISVPPKTIDVNMRAFELGVKAAKEMLGL
B3: Geranylgeranyl hydrogenase, Q5JE27 1-395 (protein)
chain: MTWKYDVVVVGSGIAGPIVARNVAKAGFSVLLIDKKWAIGTPKQCAEAISIKVFDKYDIPYDKRFINREIYGAKLYSPSGYELEMRYKEVSGVILERKVFDKMLAYYAAKAGADVLARTEALDVIRKDGKIVGIKAKHEDEPVEIYADIIVAADGVESTIARKAGINTYAPPHEFDSGYEYEMLIEGFDPDLIHLWFGNEVAPRGYVWVFPKDEDRANVGIGINSDNPKTAKYYLDKWLEENNIPAKKLLEINVGLIPVGGFVKELAKDNVVVVGDAARQVNPMHGGGMAEAMEAGTIASKWIVKALEEENLSLLQNYTKEWWETDGKRLEKVLKVRRVTEKLTDEDLDLFIQILSGADAEKIASGDYAEVIKALLKHPKVLMSKRRLSLLKELL
B4: 2-Oxoacid:ferredoxin oxidoreductases, β subunit, Q5JE71 1-288 (protein)
chain: MAKEIYSRYPMVKYLRKEALPTALCPGCGGGTVLNAFANAVDQLRIDPKDLVVVSGIGCSAWIASPYFLADTLHTTHGRAIAFATGVKVGLPDKKVVVISGDGDLASIGGNHLIHAARRNIDITVILVNNMIYGMTGGQVAPTTPFGAKTTTTPYRNIEHPLQISETVAAAGASYVARWTTAHVYQLIESIKKALQVKGFSLVEVVSQCPVQFGRRNRMKEPAEMLRWFLKNSVPISKAKKMSPEELEDKFVIGEFVNRERPEFVSELNKLIDEVQEHFGLKGEDDGV

What was measured:
[1] = target: T1, Ferredoxin 1 (Fd-1), encoded by TK1694, with C-terminal HA-His6 extension (Thermococcus kodakarensis); test: affinity purification with mass spectrometry; C-terminally HA-His6-tagged Fd made from its own genomic locus; clarified lysates of cultures grown with S0 or without S0 (pyruvate); Ni2+-charged chelating column at 4 °C in 25 mM Tris-HCl pH 8.0, 500 mM NaCl, 10% glycerol; linear imidazole gradient; pooled Fd-containing fractions analysed by MuDPIT; proteins also found in equivalent fractions of parental strain TS559 subtracted
[2] = target: T2, Ferredoxin 3 (Fd-3), encoded by TK2012, with C-terminal HA-His6 extension (Thermococcus kodakarensis); test: as above
[3] = target: T3, Ferredoxin 3 (Fd-3), encoded by TK2012, …; test: affinity purification with mass spectrometry; C-terminally HA-His6-tagged Fd made from its own genomic locus; clarified lysates of cultures grown with S0 or without S0 (pyruvate); Ni2+-charged chelating column at 4 °C in 25 mM Tris-HCl pH 8.0, 500 mM NaCl, 10% glycerol; linear imidazole gradient; pooled Fd-containing fractions analysed by MuDPIT; proteins also found in equivalent fractions of parental strain TS559 …; settings: remark: other sources report otherwise
[4] = target: T3, Ferredoxin 3 (Fd-3), encoded by TK2012, …; test: as above; settings: remark: other sources report otherwise

Row | Binder | binding [1] | binding [2] | binding [3] | binding [4]
1 | B1 | binds | no binding | – | –
2 | B2 | binds | no binding | – | –
3 | B3 | – | – | no binding | –
4 | B4 | – | – | – | no binding

Results are given in words; binding and its absence hold for the method and conditions named. Binding seen in cells or lysates may run through a third protein. These calls come from enrichment with a bait or labelling near it, and not all partners need be listed. For part of these data: No binding means not detected with the bait. Tags and fused reporters may be left off the sequences shown.
